The values below are quoted from earlier work in patent publication US20090192220A1, “TREATMENT FOR SOLID TUMORS” (Ore Pharmaceuticals Inc., priority 2007, published 2009).

For this series, the system named is ACAT. The conditions noted are these: de Médina et al. (2004), cited from earlier work.

As a reminder, the IC50 is the concentration needed to halve the response being measured. One may read the Kd as a measure of binding affinity in units of concentration. For the compound `CC/C(=C(\c1ccccc1)c1ccc(OCCN(C)C)cc1)c1ccccc1` [tamoxifen], the IC50 (read-out: IC50 for ACAT) was 6.74 µM. In addition, the Kd (read-out: affinity for ACAT (Kd)) is 6.74 µM.
